PubChem BioAssay AID1224828 – NIAID, 2016

Purpose: 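Find genes required for NF-kappaB p65 moving into the nucleus after LPS in mouse macrophages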 (primary screen)
Cells: mouse RAW264.7 G9 macrophage reporter cells (GFP-p65, Tnf promoter-mCherry)
Reagents: siRNA pool against mouse genes, 100 nM
Duration: 2 days siRNA transfection, then 40 min LPS before fixation
Treatment: LPS (Salmonella minnesota R595) at 10 ng/ml
Detection: 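Microscopy ratio of nuclear to perinuclear-ring GFP-p65 signal, scaled to the plate median; gene score is the average of two replicate robust z-scores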
Scale: p65 translocation robust z-score: higher = more nuclear NF-kappaB p65 after LPS than the plate median; nuclear/cytoplasmic p65 ratio: higher = more nuclear NF-kappaB p65
Rule for the call: 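Called active when z exceeds 3.3 or falls under -1.56 (median of Tlr4 controls), giving activity score of at least 50; no calls for control wells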
Calls: active = hit (p65 shift raised or lowered); inactive = no clear change
The whole screen tested about 17,000 reagents; this is an unselected part. Over the whole deposit, 762 (4.5%) are marked active. 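Active calls include both raised and lowered p65 entry, mostly lowered; wells with fewer than 50 cells lack a z-score.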 Raw values are not corrected between plates.

Gene | p65 translocation robust z-score | nuclear/cytoplasmic p65 ratio, rep 1 | nuclear/cytoplasmic p65 ratio, rep 2 | low cell count flag | outcome
Klhl7 (kelch-like 7) | 1.73 | 1.84 | 1.62 | enough cells to score | inactive
Phf12 (PHD finger protein 12) | -1.45 | 1.18 | 1.13 | enough cells to score | inactive
C4b (complement C4B) | 0.56 | 1.7 | 1.7 | enough cells to score | inactive
Dctn4 (dynactin 4) | 1.28 | 1.53 | 1.65 | enough cells to score | inactive
Mphosph8 (M-phase phosphoprotein 8) | – | 1.33 | 1.29 | fewer than 50 cells per well; well left out of scoring | inactive
Park7 (Parkinson disease (autosomal recessive, early onset) 7) | -0.63 | 1.38 | 1.31 | enough cells to score | inactive
Mobp (myelin-associated oligodendrocytic basic protein) | 1.68 | 2.06 | 1.84 | enough cells to score | inactive
Pdlim1 (PDZ and LIM domain 1 (elfin)) | 0.24 | 1.5 | 1.42 | enough cells to score | inactive
Cx3cl1 (C-X3-C motif chemokine ligand 1) | -0.26 | 1.48 | 1.31 | enough cells to score | inactive
Tlx2 (T cell leukemia, homeobox 2) | -1.42 | 1.39 | 1.25 | enough cells to score | inactive
Asb6 (ankyrin repeat and SOCS box-containing 6) | -0.53 | 1.4 | 1.56 | enough cells to score | inactive
Elp1 (elongator complex protein 1) | -0.99 | 2.59 | 1.25 | enough cells to score | inactive
Zfp654 (zinc finger protein 654) | – | 1.42 | 1.47 | fewer than 50 cells per well; well left out of scoring | inactive

2 of these entries, reformatted:
{"Gene":"Pdlim1 (PDZ and LIM domain 1 (elfin))","p65 translocation robust z-score":0.24,"nuclear/cytoplasmic p65 ratio, rep 1":1.5,"nuclear/cytoplasmic p65 ratio, rep 2":1.42,"low cell count flag":"enough cells to score","outcome":"inactive"}
{"Gene":"Cx3cl1 (C-X3-C motif chemokine ligand 1)","p65 translocation robust z-score":-0.26,"nuclear/cytoplasmic p65 ratio, rep 1":1.48,"nuclear/cytoplasmic p65 ratio, rep 2":1.31,"low cell count flag":"enough cells to score","outcome":"inactive"}

The list goes on.
Gene | p65 translocation robust z-score | nuclear/cytoplasmic p65 ratio, rep 1 | nuclear/cytoplasmic p65 ratio, rep 2 | low cell count flag | outcome
Mustn1 (musculoskeletal, embryonic nuclear protein 1) | 0.16 | 1.77 | 1.65 | enough cells to score | inactive
Ndst2 (N-deacetylase/N-sulfotransferase (heparan glucosaminyl) 2) | -0.77 | 1.79 | 1.36 | enough cells to score | inactive
Pip5kl1 (phosphatidylinositol-4-phosphate 5-kinase-like 1) | 1.01 | 1.62 | 1.5 | enough cells to score | inactive
Kif5a (kinesin family member 5A) | -0.32 | 1.39 | 1.38 | enough cells to score | inactive
Sec11c (SEC11 homolog C, signal peptidase complex subunit) | – | 1.62 | 1.13 | fewer than 50 cells per well; well left out of scoring | inactive
Xpo5 (exportin 5) | -0.83 | 1.35 | 1.12 | enough cells to score | inactive
Fras1 (Fraser extracellular matrix complex subunit 1) | -1.29 | 1.48 | 1.22 | enough cells to score | inactive
Rlf (rearranged L-myc fusion sequence) | -0.06 | 1.6 | 1.61 | enough cells to score | inactive
Zc3h12a (zinc finger CCCH type containing 12A) | -1.71 | 1.35 | 1.53 | enough cells to score | active
Sp100 (nuclear antigen Sp100) | -0.94 | 1.27 | 1.15 | enough cells to score | inactive
Elane (elastase, neutrophil expressed) | -0.03 | 1.41 | 1.36 | enough cells to score | inactive
